Among the data in doi:10.1101/2022.11.10.516022 are binding values, retold here.

These are yes or no findings as the source states them, for the method shown. Binding seen in cells or lysates may run through a third protein. A result given as binding can be weak or reduced; the word gives no strength.

The labels stand for the following.
B1: in vitro translated HSL (enzyme, UniProt P54310 1-759)
chain: MDLRTMTQSLVTLAEDNMAFFSSQGPGETARRLSNVFAGVREQALGLEPTLGQLLGVAHHFDLDTETPANGYRSLVHTARCCLAHLLHKSRYVASNRKSIFFRASHNLAELEAYLAALTQLRAMAYYAQRLLTINRPGVLFFEGDEGLTADFLQEYVTLHKGCFYGRCLGFQFTPAIRPFLQTLSIGLVSFGEHYKRNETGLSVTASSLFTGGRFAIDPELRGAEFERIIQNLDVHFWKAFWNITEIEVLSSLANMASTTVRVSRLLSLPPEAFEMPLTSDPRLTVTISPPLAHTGPAPVLARLISYDLREGQDSKVLNSLAKSEGPRLELRPRPHQAPRSRALVVHIHGGGFVAQTSKSHEPYLKNWAQELGVPIFSIDYSLAPEAPFPRALEECFFAYCWAVKHCDLLGSTGERICLAGDSAGGNLCITVSLRAAAYGVRVPDGIMAAYPVTTLQSSASPSRLLSLMDPLLPLSVLSKCVSAYSGTEAEDHFDSDQKALGVMGLVQRDTSLFLRDLRLGASSWLNSFLELSGRKPQKTTSPTAESVRPTESMRRSVSEAALAQPEGLLGTDTLKKLTIKDLSNSEPSDSPEMSQSMETLGPSTPSDVNFFLRPGNSQEEAEAKDEVRPMDGVPRVRAAFPEGFHPRRSSQGVLHMPLYTSPIVKNPFMSPLLAPDSMLKTLPPVHLVACALDPMLDDSVMFARRLRDLGQPVTLKVVEDLPHGFLSLAALCRETRQATEFCVQRIRLILTPPAAPLN
modifications: 35S labeled methionine
B2: in vitro translated ATGL (enzyme, UniProt Q8BJ56 1-486)
chain: MFPRETKWNISFAGCGFLGVYHIGVASCLREHAPFLVANATHIYGASAGALTATALVTGACLGEAGANIIEVSKEARKRFLGPLHPSFNLVKTIRGCLLKTLPADCHERANGRLGISLTRVSDGENVIISHFSSKDELIQANVCSTFIPVYCGLIPPTLQGVRYVDGGISDNLPLYELKNTITVSPFSGESDICPQDSSTNIHELRVTNTSIQFNLRNLYRLSKALFPPEPMVLREMCKQGYRDGLRFLRRNGLLNQPNPLLALPPVVPQEEDAEEAAVVEERAGEEDQLQPYRKDRILEHLPARLNEALLEACVEPKDLMTTLSNMLPVRLATAMMVPYTLPLESAVSFTIRLLEWLPDVPEDIRWMKEQTGSICQYLVMRAKRKLGDHLPSRLSEQVELRRAQSLPSVPLSCATYSEALPNWVRNNLSLGDALAKWEECQRQLLLGLFCTNVAFPPDALRMRAPASPTAADPATPQDPPGLPPC
modifications: 35S labeled methionine
B3: in vitro translated Plin1 (protein, UniProt Q8CGN5 1-517)
chain: MSMNKGPTLLDGDLPEQENVLQRVLQLPVVSGTCECFQKTYNSTKEAHPLVASVCNAYEKGVQGASNLAAWSMEPVVRRLSTQFTAANELACRGLDHLEEKIPALQYPPEKIASELKGTISTRLRSARNSISVPIASTSDKVLGATLAGCELALGMAKETAEYAANTRVGRLASGGADLALGSIEKVVEFLLPPDKESAPSSGRQRTQKAPKAKPSLVRRVSTLANTLSRHTMQTTAWALKQGHSLAMWIPGVAPLSSLAQWGASAAMQVVSRRQSEVRVPWLHNLAASQDESHDDQTDTEGEETDDEEEEEESEAEENVLREVTALPNPRGLLGGVVHTVQNTLRNTISAVTWAPAAVLGTVGRILHLTPAQAVSSTKGRAMSLSDALKGVTDNVVDTVVHYVPLPRLSLMEPESEFRDIDNPSAEAERKGSGARPASPESTPRPGQPRGSLRSVRGLSAPSCPGLDDKTEASARPGFLAMPREKPARRVSDSFFRPSVMEPILGRAQYSQLRKKS
modifications: 35S labeled methionine

The target in this assay is ApoL6-GST (GST-tagged full-length ApoL6) (mouse). Description: pull-down.
Consider B1, for which the binding result is reported as “no binding”. With B2, the binding result was “no binding”. With B3 the entry was “binds”.
